PubChem BioAssay AID1159584, Peter MacCallum Cancer Centre, 2016

Screen: 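Genes whose loss is lethal only together with E-cadherin loss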 (primary screen)
Cells: human MCF10A breast epithelial cells, parental and CDH1-null
Knock-down reagent: siRNA against human genes
Read-out: 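ATP luminescence (CellTiter-Glo) viability per line relative to mean mock wells over all plates, and the ratio of CDH1-null to parental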
Scale: CDH1-null / parental viability ratio: higher = CDH1-null cells survive relatively better than parental
This is a random part of about 18,000 reagents tested. Further read-outs or replicates are left out here. Not given: the amount of reagent, the time to read-out.

HLA-G scored CDH1-null / parental viability ratio 0.83.
After knock-down of PHF1, the record shows CDH1-null / parental viability ratio 0.95.
Against LMO7, the values are CDH1-null / parental viability ratio 0.91.
After knock-down of CCNK, the record shows CDH1-null / parental viability ratio 0.81.
Depletion of PRAP1 resulted in: CDH1-null / parental viability ratio 0.77.
For CLVS1, the values are CDH1-null / parental viability ratio 0.86.
For BDP1 the deposit lists CDH1-null / parental viability ratio 1.15.
Knock-down of CEP170 came out at: CDH1-null / parental viability ratio 0.94.
Depletion of MMP15 came out at: CDH1-null / parental viability ratio 1.25.
Depletion of SCHIP1 resulted in: CDH1-null / parental viability ratio 0.81.
TOX3 gave CDH1-null / parental viability ratio 0.89.
SULT1B1 gave CDH1-null / parental viability ratio 1.21.
Knock-down of PIGL resulted in: CDH1-null / parental viability ratio 0.72.
Depletion of OR4F29 came out at: CDH1-null / parental viability ratio 1.31.
After knock-down of MICAL1 the results were CDH1-null / parental viability ratio 0.91.
RBPMS scored CDH1-null / parental viability ratio 1.25.
MIDN gave CDH1-null / parental viability ratio 1.21.
For SLC25A40, the values are CDH1-null / parental viability ratio 0.93.
With knock-down of APOC2, the record shows CDH1-null / parental viability ratio 1.23.
DHRS7B gave CDH1-null / parental viability ratio 0.79.
For ELAC2, the values are CDH1-null / parental viability ratio 0.71.
Against CDK1 the deposit lists CDH1-null / parental viability ratio 1.01.
MTRFR scored CDH1-null / parental viability ratio 1.04.
For PSKH2, the values are CDH1-null / parental viability ratio 1.04.
After knock-down of EGFL8, the screen gave CDH1-null / parental viability ratio 0.8.
Depletion of PDE6B resulted in: CDH1-null / parental viability ratio 1.18.
With knock-down of SLC5A3, the record shows CDH1-null / parental viability ratio 1.35.
ADNP2 scored CDH1-null / parental viability ratio 1.5.
After knock-down of RNF121, the screen gave CDH1-null / parental viability ratio 0.83.
PLTP showed CDH1-null / parental viability ratio 1.31.
RARRES2 gave CDH1-null / parental viability ratio 0.97.
Depletion of DPYD resulted in: CDH1-null / parental viability ratio 0.83.
For RSRC2, the entry reads CDH1-null / parental viability ratio 1.14.
For CBY2, the entry reads CDH1-null / parental viability ratio 0.94.
Against CCDC187, the values are CDH1-null / parental viability ratio 1.07.
After knock-down of FAM117B, the record shows CDH1-null / parental viability ratio 0.77.
Silencing of ADPRS gave: CDH1-null / parental viability ratio 0.91.
Silencing of PRUNE1 came out at: CDH1-null / parental viability ratio 1.09.
Against SPATS2 the deposit lists CDH1-null / parental viability ratio 1.01.
FGF19 gave CDH1-null / parental viability ratio 1.08.
GNPTG scored CDH1-null / parental viability ratio 0.86.
For SLC27A1 the deposit lists CDH1-null / parental viability ratio 1.07.
After knock-down of BIN3 the results were CDH1-null / parental viability ratio 1.07.
With knock-down of OR2T6 the results were CDH1-null / parental viability ratio 1.07.
Silencing of POU5F2 resulted in: CDH1-null / parental viability ratio 1.06.
